Consider 1 molecule from paper PMC7332104.

For the assay, the target named is T1, Orc1-TAP (budding yeast) (UniProt P54784).
T1 sequence: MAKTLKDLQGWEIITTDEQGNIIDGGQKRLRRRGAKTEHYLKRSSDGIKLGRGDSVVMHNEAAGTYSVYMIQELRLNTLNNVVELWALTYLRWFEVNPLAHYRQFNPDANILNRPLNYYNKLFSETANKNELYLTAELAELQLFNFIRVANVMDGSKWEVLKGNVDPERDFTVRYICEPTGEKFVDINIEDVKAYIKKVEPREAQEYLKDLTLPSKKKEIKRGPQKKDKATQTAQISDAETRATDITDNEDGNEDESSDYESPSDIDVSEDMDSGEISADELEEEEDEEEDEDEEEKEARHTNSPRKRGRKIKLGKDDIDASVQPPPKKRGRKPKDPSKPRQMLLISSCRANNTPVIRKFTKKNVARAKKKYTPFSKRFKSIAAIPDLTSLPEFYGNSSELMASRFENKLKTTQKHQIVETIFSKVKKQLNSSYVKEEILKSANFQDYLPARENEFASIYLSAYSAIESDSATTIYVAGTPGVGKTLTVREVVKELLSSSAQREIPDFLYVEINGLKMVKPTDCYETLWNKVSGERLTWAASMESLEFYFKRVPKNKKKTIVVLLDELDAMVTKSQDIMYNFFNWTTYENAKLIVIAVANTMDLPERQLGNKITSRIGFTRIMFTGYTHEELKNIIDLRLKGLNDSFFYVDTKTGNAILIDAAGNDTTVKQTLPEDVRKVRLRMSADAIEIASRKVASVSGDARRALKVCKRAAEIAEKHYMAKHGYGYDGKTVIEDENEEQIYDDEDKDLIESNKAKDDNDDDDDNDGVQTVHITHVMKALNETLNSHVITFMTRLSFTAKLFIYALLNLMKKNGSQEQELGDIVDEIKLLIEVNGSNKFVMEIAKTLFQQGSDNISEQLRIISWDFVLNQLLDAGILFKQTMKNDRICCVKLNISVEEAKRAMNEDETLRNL
Kind of assay: co-IP; lysates of meiotic (SPO) cultures, chromatin sheared by sonication; lysis buffer 50mM Tris-HCl pH 7.4, 150mM NaCl, 1% Triton X-100, 1mM EDTA; immunoprecipitated with α-TAP antibodies on magnetic beads; Western blot. On the technique in general: Immunoblotting shows a protein as a band on a membrane.

Results are given in words; binding and its absence hold for the method and conditions named. In cells and extracts the contact can be indirect. Some entries that bind do so weakly or less than the wild type. Sequences can lack the tags named with a protein.

B1: 3xFLAG-Pch2 (NH2-terminal 3xFLAG-tagged wild type version of Pch2) (enzyme, UniProt P38126 1-564)
chain: MSYIVDLQVRGSSLRVIKCMFREDEQISSLHSGSDSKQNSNKKLGEFLNLLKAVVKRKLESFPKDRLKTSIITGQELMREGQGSIEIKDPPTEAQQHLIRSLAKVLLHQFSSINGKVNTVNEGQDNLFLSLFVKKISIEQQSTSHVSIKLNFHEKINLGQHIDSILDSEETNESDTYHMGSVDEFIIYPFCCLEEQDELKNGSILSTEFDKIDLELDEDDGFEGETLNNCINSVGNFDIPLSKQTLNLVNISYLPGTTFEGQWESLYFGNNIKERLYSYATISLKIARFKQTGDSNQEDITTLITNNKLLLVHGPPGTGKTTLCKALCQKLSVRREFSDGSDTIDTNYKGIIIELSCARIFSKWFGESSKNISIVFKDIEELLKVNEGRGIFICLLIDEVEAIASSRTNLSSRNESTDGIRVVNTLLTQLDRLKKYHNFLALATSNLLDSLDDAFVDRADGVFYVGNPTAEGILHILKVCIEEMITSGIILFHARSTGVKFFNKYQDILRKIAIKCSTVDISGRTIRKLPLMCLSEYFRTFPVDDDEFVLALAMSARKLSAARK
Turning to B1, the binding entry is recorded as “binds”.
